In doi:10.1101/2021.09.06.459192:
These are yes or no findings as the source states them, for the method shown. Binding seen in cells or lysates may run through a third protein. Some entries that bind do so weakly or less than the wild type.

Amino acid sequences for entries named in this document (tags omitted).
UniProt P42945: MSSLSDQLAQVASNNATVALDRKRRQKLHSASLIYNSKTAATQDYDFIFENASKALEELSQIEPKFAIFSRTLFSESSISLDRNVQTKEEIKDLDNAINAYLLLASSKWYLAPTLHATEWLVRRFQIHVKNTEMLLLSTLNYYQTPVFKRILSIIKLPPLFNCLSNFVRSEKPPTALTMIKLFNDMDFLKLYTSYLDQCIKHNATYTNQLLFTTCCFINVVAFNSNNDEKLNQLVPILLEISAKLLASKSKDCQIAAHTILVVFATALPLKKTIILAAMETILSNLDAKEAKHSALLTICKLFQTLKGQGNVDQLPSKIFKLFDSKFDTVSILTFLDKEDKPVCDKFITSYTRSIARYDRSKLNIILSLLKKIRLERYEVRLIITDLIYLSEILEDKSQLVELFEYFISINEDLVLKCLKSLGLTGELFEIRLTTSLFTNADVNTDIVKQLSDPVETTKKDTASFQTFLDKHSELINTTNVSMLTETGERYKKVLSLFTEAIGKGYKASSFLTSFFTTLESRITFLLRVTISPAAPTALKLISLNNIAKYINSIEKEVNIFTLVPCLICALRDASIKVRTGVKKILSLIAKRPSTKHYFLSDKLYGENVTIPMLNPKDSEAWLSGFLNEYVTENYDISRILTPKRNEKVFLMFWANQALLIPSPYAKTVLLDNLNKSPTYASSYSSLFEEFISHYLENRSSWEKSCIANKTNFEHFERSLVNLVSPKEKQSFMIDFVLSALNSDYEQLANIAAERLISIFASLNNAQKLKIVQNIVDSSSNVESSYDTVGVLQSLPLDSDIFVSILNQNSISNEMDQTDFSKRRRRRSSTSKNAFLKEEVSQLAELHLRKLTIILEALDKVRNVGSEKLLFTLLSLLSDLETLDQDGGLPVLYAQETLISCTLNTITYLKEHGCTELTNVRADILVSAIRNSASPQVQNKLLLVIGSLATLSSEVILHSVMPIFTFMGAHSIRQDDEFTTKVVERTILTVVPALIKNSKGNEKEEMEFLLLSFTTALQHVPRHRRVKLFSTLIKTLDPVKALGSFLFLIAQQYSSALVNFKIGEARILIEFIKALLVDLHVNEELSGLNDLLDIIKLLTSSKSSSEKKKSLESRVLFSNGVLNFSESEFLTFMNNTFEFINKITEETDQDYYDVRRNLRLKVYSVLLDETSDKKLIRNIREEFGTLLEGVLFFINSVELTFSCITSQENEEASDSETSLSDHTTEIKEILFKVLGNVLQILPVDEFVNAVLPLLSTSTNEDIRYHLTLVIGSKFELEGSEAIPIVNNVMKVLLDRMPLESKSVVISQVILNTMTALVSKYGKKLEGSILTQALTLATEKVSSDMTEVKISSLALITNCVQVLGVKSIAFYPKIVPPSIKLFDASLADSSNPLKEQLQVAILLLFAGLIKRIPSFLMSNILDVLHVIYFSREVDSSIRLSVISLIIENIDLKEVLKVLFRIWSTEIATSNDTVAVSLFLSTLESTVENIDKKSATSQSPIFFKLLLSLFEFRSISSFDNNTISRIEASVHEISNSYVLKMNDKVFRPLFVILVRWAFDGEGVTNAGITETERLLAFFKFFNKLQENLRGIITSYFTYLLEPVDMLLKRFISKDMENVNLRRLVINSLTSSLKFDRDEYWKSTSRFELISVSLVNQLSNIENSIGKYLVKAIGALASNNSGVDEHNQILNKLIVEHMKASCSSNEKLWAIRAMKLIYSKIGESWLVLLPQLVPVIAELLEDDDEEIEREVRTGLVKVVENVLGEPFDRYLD
UniProt Q05022: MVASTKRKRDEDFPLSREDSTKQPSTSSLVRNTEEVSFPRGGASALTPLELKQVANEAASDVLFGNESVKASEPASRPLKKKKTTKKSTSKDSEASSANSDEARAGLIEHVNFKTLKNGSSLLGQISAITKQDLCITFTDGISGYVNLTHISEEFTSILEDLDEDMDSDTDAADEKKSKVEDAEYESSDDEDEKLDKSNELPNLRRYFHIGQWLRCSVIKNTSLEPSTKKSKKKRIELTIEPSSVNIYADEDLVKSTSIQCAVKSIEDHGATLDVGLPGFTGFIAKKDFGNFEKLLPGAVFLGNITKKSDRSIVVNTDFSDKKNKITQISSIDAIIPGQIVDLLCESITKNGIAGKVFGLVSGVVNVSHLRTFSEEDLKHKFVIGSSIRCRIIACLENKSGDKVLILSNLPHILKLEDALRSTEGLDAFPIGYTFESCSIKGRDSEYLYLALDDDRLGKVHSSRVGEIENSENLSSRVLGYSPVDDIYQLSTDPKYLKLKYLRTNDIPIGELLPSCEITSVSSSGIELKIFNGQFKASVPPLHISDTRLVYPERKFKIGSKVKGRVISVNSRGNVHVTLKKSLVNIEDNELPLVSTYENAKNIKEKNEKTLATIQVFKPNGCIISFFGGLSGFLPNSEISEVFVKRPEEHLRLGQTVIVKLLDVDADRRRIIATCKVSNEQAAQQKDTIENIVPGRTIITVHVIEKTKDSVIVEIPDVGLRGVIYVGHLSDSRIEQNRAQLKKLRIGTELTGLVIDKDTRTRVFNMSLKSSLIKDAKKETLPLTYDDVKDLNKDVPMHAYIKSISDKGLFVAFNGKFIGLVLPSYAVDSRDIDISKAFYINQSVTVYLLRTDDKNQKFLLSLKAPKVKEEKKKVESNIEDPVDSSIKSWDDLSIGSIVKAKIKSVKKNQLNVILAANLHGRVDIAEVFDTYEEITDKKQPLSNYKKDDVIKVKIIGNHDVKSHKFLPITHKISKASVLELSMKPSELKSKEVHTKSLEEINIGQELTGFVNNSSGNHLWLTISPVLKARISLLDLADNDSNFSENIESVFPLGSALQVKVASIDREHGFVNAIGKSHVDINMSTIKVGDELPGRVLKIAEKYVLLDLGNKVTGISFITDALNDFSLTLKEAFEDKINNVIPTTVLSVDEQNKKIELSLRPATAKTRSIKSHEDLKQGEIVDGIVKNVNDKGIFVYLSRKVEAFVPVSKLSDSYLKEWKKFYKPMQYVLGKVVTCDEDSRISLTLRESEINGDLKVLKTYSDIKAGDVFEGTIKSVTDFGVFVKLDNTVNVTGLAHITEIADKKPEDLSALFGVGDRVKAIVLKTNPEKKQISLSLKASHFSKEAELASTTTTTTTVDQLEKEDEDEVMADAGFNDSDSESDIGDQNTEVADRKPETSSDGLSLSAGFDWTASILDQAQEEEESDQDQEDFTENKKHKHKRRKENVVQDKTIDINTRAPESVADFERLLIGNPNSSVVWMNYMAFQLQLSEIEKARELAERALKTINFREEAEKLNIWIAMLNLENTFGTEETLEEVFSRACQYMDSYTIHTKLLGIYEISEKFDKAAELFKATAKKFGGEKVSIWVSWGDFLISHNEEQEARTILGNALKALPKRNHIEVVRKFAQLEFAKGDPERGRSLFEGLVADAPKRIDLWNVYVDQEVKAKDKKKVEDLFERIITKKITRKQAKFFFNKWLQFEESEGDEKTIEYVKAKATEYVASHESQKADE

Target: Utp10-TAP (S. cerevisiae) (UniProt P42945)
Test: co-IP

## Rrp5 (in yeast cells) (from UniProt Q05022 1-1729)
  binding: binds
